# The campaign covered roughly 400,000 compounds. About 13,000 (3.2%) were called active. Inconclusive results, whose numbers are uncertain, are shown with a selection of clear calls. Calls follow the shape of the dose curve; as a rule, active = well fitted cell-killing curve with a large enough effect; inconclusive = small, poorly fitted or top-dose-only effect, or effect the other way; inactive = flat fitted curve, though single readings scatter. Potencies of inconclusive entries are doubtful fits and often do not repeat.
# Experiment: qHTS assay for MDR1-selective chemotherapeutics: Primary screen using the drug-selected MDR subline cells KB-V1; also: nearly all actives have a fitted effect of over 60% in size
# Details: KB-V1 MDR cells viability, CellTiter-Glo, 72 h; activity change, negative = cytotoxicity: at 46.1 µM (top of the series)
# Procedure, shortened: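 KB-V1, DMEM (no phenol red) + 10% FBS; cpd pin-transferred, titration series; 72 h, 37 degrees C; CellTiter-Glo, luminescence. Data normalized, curve-fit.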
# % is scaled to controls: 0 for no effect and ±100 for the full control effect; potency is read from the fitted curve at half-maximal effect.
SMILES,"activity change, negative = cytotoxicity",Potency
COc1ccc(CN2CCc3c([nH]c4ccccc34)C2)cc1Br,inactive: -23.5%,
COc1ccccc1C/C(N)=N/OC(=O)c1ccc2c(c1)OCO2,,"inconclusive: 18.4 µM [cytotoxic, single point]"
COc1ccccc1N1CCN(C(=O)C2CCN(C(=O)c3ccc(C(C)(C)C)cc3)CC2)CC1,,"inconclusive: 2.91 µM [cytotoxic, partial curve, poor fit]"
CCOc1ccc(-c2cc(C(=O)Nc3cccc(C(F)(F)F)c3)[nH]n2)c(C)c1,inactive: 1.32%,
COC(=O)c1sccc1NC(=O)c1ccc(C)cc1,inactive: -4.36%,
CC(=O)N1CCC(=NNc2nc3ccccc3s2)CC1,,"inconclusive: 2.31 µM [rising, partial curve, poor fit]"
O=[N+]([O-])c1ccccc1C=NN1CCCCCC1,inactive: -12.5%,
Cc1cc(C)cc(NC(=O)CSc2nc3c([nH]c4ccccc43)c(=O)n2-c2ccc(F)cc2)c1,,"inconclusive: 23.1 µM [cytotoxic, single point]"
C/C=C/Cn1c(N2CCCCCC2)nc2c1c(=O)[nH]c(=O)n2C,,"inconclusive: 7.31 µM [cytotoxic, partial curve, poor fit]"
CCc1nc2c(OCC=C(C)C)cccn2c1N(C)C(=O)c1ccccc1F,,"inconclusive: 11.6 µM [cytotoxic, partial curve, poor fit]"
CN1CCN(c2nc(-c3ccccc3)nc3c2oc2ccccc23)CC1,,"inconclusive: 10.3 µM [cytotoxic, partial curve, poor fit]"
O=S(=O)(NCc1ccccc1)c1cccc2nonc12,,"inconclusive: 29.1 µM [cytotoxic, single point]"
COc1cccc(CNC(=O)CCC2CCCN(C(=O)c3cc(C)[nH]n3)C2)c1 (configuration not stated),inactive: 0%,
Cc1c(-c2ccccc2)[nH]n2c(=O)c3c(nc12)CCCC3,,active: 20.6 µM
Cc1cc(C)cc(NS(=O)(=O)c2ccc(NC(=S)NC(=O)c3ccc(Br)o3)cc2)c1,,active: 18.4 µM
Nc1ccc(C(=O)N/N=C/c2c[nH]c3ccccc23)cc1,,"inconclusive: 5.8 µM [rising, full curve]"
COc1ccccc1OCC(=O)N(Cc1nc(-c2ccccc2)no1)C1CCCCC1,,active: 16.4 µM
Clc1ccc(Nc2nc(NCCN3CCOCC3)nc(N3CCOCC3)n2)cc1,,"inconclusive: 23.1 µM [cytotoxic, single point]"
CN(C)c1nc(OCCOC(=O)Nc2ccc(Cl)cc2Cl)nc(N(C)C)n1,inactive: -12.1%,
COc1cc(/C=C/C(=O)N2CCCc3ccccc32)cc(OC)c1OC,,"inconclusive: 29.1 µM [cytotoxic, single point]"
Cc1ccccc1CC1(CO)CCCN(C(=O)c2ccc3ncccc3c2)C1 (configuration not stated),,"inconclusive: 9.2 µM [cytotoxic, partial curve]"
CCNC(=S)N(Cc1cccs1)Cc1cc2cc(OCC)ccc2[nH]c1=O,,active: 11.6 µM
Clc1cccc(CN2CCc3c([nH]c4ccccc34)C2)c1,,"inconclusive: 0.82 µM [cytotoxic, full curve, poor fit]"

# Among those listed so far, these have four or more nitrogen atoms.
SMILES,"activity change, negative = cytotoxicity",Potency
CC(=O)N1CCC(=NNc2nc3ccccc3s2)CC1,,"inconclusive: 2.31 µM [rising, partial curve, poor fit]"
Cc1cc(C)cc(NC(=O)CSc2nc3c([nH]c4ccccc43)c(=O)n2-c2ccc(F)cc2)c1,,"inconclusive: 23.1 µM [cytotoxic, single point]"
C/C=C/Cn1c(N2CCCCCC2)nc2c1c(=O)[nH]c(=O)n2C,,"inconclusive: 7.31 µM [cytotoxic, partial curve, poor fit]"
CN1CCN(c2nc(-c3ccccc3)nc3c2oc2ccccc23)CC1,,"inconclusive: 10.3 µM [cytotoxic, partial curve, poor fit]"
COc1cccc(CNC(=O)CCC2CCCN(C(=O)c3cc(C)[nH]n3)C2)c1 (configuration not stated),inactive: 0%,
Nc1ccc(C(=O)N/N=C/c2c[nH]c3ccccc23)cc1,,"inconclusive: 5.8 µM [rising, full curve]"
Clc1ccc(Nc2nc(NCCN3CCOCC3)nc(N3CCOCC3)n2)cc1,,"inconclusive: 23.1 µM [cytotoxic, single point]"
CN(C)c1nc(OCCOC(=O)Nc2ccc(Cl)cc2Cl)nc(N(C)C)n1,inactive: -12.1%,

# Next structures:

SMILES,"activity change, negative = cytotoxicity",Potency
COC(=O)C1=CN(c2cccc(Cl)c2)C=C(C(=O)OC)C1c1cccc(OC)c1,,"inconclusive: 10.3 µM [cytotoxic, partial curve, poor fit]"
Cc1nc2ccccc2c(=O)n1NC(=O)c1cncc(Br)c1,,"inconclusive: 29.1 µM [rising, single point]"
COc1ccccc1CCNC(=O)C(=O)NCCC1CCCCN1S(=O)(=O)c1ccccc1 (configuration not stated),inactive: -8%,
Cc1cc(N2C(=O)C(O)=C(C(=O)c3ccco3)C2c2ccc([N+](=O)[O-])cc2)no1 (configuration not stated),inconclusive: -3.67%,
CC(=O)c1cc(-c2ccccc2)n(CC(=O)N2CCC(C)CC2)c1C,,active: 5.8 µM
N#CC1=C2N=C(N)c3ccccc3N2C2=C(C(=O)CCC2)C1c1ccc(Cl)cc1 (configuration not stated),,"inconclusive: 29.1 µM [cytotoxic, single point]"
O=C(NCc1ccccc1)C(c1ccco1)N(C(=O)c1cnccn1)c1ccc(F)cc1 (configuration not stated),,"inconclusive: 6.51 µM [cytotoxic, partial curve, poor fit]"
N/C(COc1cc(Cl)cc(Cl)c1)=N\O,inactive: -15.8%,
Cc1cc(/C=C2/NC(=O)NC2=O)c(C)n1-c1ccncc1,,"inconclusive: 16.4 µM [cytotoxic, partial curve, poor fit]"
CCc1cccc(C)c1NC(=O)c1ccc(CN2CCc3ccccc3C2)cc1,,"inconclusive: 8.2 µM [cytotoxic, partial curve, poor fit]"
Cc1cccc(CN2C(=O)c3ccccc3Sc3ccc(C(=O)NCCN4CCOCC4)cc32)c1,,"inconclusive: 9.2 µM [cytotoxic, partial curve]"
CCn1c(SCc2ccc(Cl)cc2)nnc1-c1ccccc1,,"inconclusive: 29.1 µM [cytotoxic, single point]"
C=CCC[C@@H](Cc1ccc(F)cc1)C(=O)OCCNC(=O)[C@@H](CC=C)CC(=O)N[C@H](CO)Cc1ccccc1,,"inconclusive: 4.11 µM [cytotoxic, partial curve, poor fit]"
CCN(CC)S(=O)(=O)c1ccc2c(c1)nc(CN(C)C(=O)Nc1ccc(F)cc1)n2C,inactive: 5.52%,
Cc1ccc(-n2c(N)c(C(N)=O)sc2=S)c(C)c1,inactive: -2.32%,
CCOC(=O)[C@]12CCCC=C1N(Cc1ccco1)C(=O)[C@H](CC(=O)NCCCCc1ccccc1)C2,,active: 14.6 µM
O=C(Cc1ccccc1)Nn1c(-c2ccccc2)nc2ccccc2c1=O,,active: 18.4 µM
COC1OCC(O)C(NC(=O)N(C)N=O)C1O (configuration not stated),inactive: 5.45%,
O=C(Nc1nc2n(n1)C(c1ccccc1)C=C(c1ccccc1)N2)c1ccccc1 (configuration not stated),inactive: -21.1%,
COCc1c(C(=O)N2CCN(c3ccc(C(F)(F)F)cn3)CC2)oc2ccccc12,,"inconclusive: 18.4 µM [cytotoxic, single point]"
CCOc1ccc(NC(=O)CN2CCN(CC(=O)Nc3ccc(F)cc3)CC2)cc1,,"inconclusive: 20.6 µM [cytotoxic, single point]"
C#CCOCCOCCOCCNc1nc(N2CCN(C(=O)[C@H](C(C)C)n3cc(CCO)nn3)CC2)nc(N2CCN(C(=O)[C@H](CCCCN)n3cc(CCCC)nn3)CC2)n1,,"inconclusive: 32.6 µM [rising, single point]"
c1ccc(-c2nc(-c3cccs3)[nH]c2-c2ccccc2)cc1,,"inconclusive: 10.3 µM [cytotoxic, partial curve]"

SMILES,"activity change, negative = cytotoxicity",Potency
O=C1CC(c2ccco2)Cc2nc(N3CCc4ccccc4C3)ncc21 (configuration not stated),,"inconclusive: 29.1 µM [cytotoxic, single point]"
CC1=Nc2ccccc2N=C(NC(=O)CN2CCN(c3ccc(F)cc3)CC2)C1c1ccccc1 (configuration not stated),,"inconclusive: 7.31 µM [cytotoxic, partial curve]"
O=C(Nc1cccc(C(=O)O)c1)Nc1ccc2c(c1)OCO2,,"inconclusive: 8.2 µM [cytotoxic, partial curve]"
Cc1ccc(C)c(CN2C(=O)c3ccccc3S(=O)(=O)c3ccc(C(=O)Nc4cc(F)ccc4F)cc32)c1,inactive: -26.3%,
C#CCN(C[C@@H]1[C@@H](OC(=O)NCc2ccccc2)[C@@H](OC(=O)NCc2ccccc2)CN(C(=O)OC(C)C)N1C(=O)OC(C)C)S(=O)(=O)c1ccc(C)cc1,inactive: 12.3%,
O=C(Nc1cc(F)c(Br)cc1F)c1ccc(Cl)cc1,,"inconclusive: 14.6 µM [rising, partial curve, poor fit]"
COC(=O)c1ccccc1NC(=O)c1cnn(-c2ccc(F)cc2)c1-n1cccc1,inactive: -36.6%,
CCCCN(C)c1c(C)nc2ccc(C(=O)NCc3ccc(OC)cc3)cn12,,"inconclusive: 6.51 µM [cytotoxic, partial curve]"
O=C(Nc1ccccc1C(F)(F)F)c1nc(S(=O)(=O)Cc2ccccc2F)ncc1Cl,inactive: 10.7%,
O=C(O)c1ccc(/C=N/NC(=O)c2cc3ccccc3cc2O)cc1,,"inconclusive: 29.1 µM [cytotoxic, single point]"
CN(c1ccccc1)S(=O)(=O)c1cccc(NC(=O)CSc2nnc(C3CC3)n2C)c1,inactive: -2.8%,
CN=C(Nc1cc(C)nn1-c1ccccc1)c1ccccc1F,,"inconclusive: 20.6 µM [cytotoxic, single point]"
Cc1ccc(Nc2nc(C(=O)NCC3CCCO3)cs2)cc1 (configuration not stated),,"inconclusive: 20.6 µM [cytotoxic, single point]"
CCC(CC)C(=O)Nc1nnc(SCC(=O)NC(C)(C)C)s1,inactive: 13.9%,
Cc1cccnc1NC(=O)c1ccc(Cl)c(S(=O)(=O)N2CCCCCC2)c1,,"inconclusive: 2.91 µM [cytotoxic, partial curve]"
O=C(CCCN1C(=O)c2ccccc2C1=O)N1CCN(c2ccccn2)CC1,,"inconclusive: 25.9 µM [cytotoxic, partial curve, poor fit]"
O=S(OCCN1CCCC1)C(c1ccccc1)c1ccccc1 (configuration not stated),,"inconclusive: 11.6 µM [cytotoxic, partial curve]"
COc1ccccc1C(=O)N/C(=C\c1cn(C)c2ccccc12)C(=O)NCCCn1ccnc1,,"inconclusive: 20.6 µM [rising, partial curve, poor fit]"
Cc1ccc(C(=O)NCc2ccco2)c(C)c1,,"inconclusive: 29.1 µM [rising, single point]"
Cc1cccn2c(=O)c3cc(C(=O)NC4CCCCC4)n(C)c3nc12,,"inconclusive: 29.1 µM [cytotoxic, partial curve, poor fit]"
CC(c1ccccc1)C1CC(=O)N(c2ccccc2)C1=O (configuration not stated),,"inconclusive: 32.6 µM [rising, partial curve, poor fit]"

# Of the compounds above, 2 contain a COOH group.
SMILES,"activity change, negative = cytotoxicity",Potency
O=C(Nc1cccc(C(=O)O)c1)Nc1ccc2c(c1)OCO2,,"inconclusive: 8.2 µM [cytotoxic, partial curve]"
O=C(O)c1ccc(/C=N/NC(=O)c2cc3ccccc3cc2O)cc1,,"inconclusive: 29.1 µM [cytotoxic, single point]"
